We go through 1 molecule from patent US20200347144A1.

This assay deals with monkey 4-1BB-his protein (monkey). The assay can be described thus: ELISA: monkey 4-1BB-his coated at 1.0 µg/mL, antibody titrated, HRP secondary antibody, OD450.

No constants are given. Whether binding was seen depends on the method and setting. Binding calls can cover weak binding; strength is not graded here.

B1: 119B6G5 (antibody, V domains shown)
VH: EVQLLESGGGLVQPGGSLRLSCAASGFTFSNYAMSWVRQGPGKGLEWVSTIIGSGDSTYYTDSVKGRFTISRDNSKNTLFLQMNSLRAEDTAVYYCARDKSGWYYFDYWGQGTLVTVSS
VL: DIQMTQSPSTLSASVGDRVTITCRASQSISNWLAWYQQKPGKAPKLLIYKASSLESGVPSRFSGSGSGTEFTLTISSLQPDDFATYYCQQYNDYFPITFGQGTRLEIK
On to B1, for which the binding result is “binds”.
